PubChem BioAssay AID1159598 | NIAID, 2016

- Purpose: 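Knock-downs that alter flagellin-driven TNF reporter signal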
- System: human THP-1 B5 reporter cells made macrophage-like with PMA
- Knock-down reagent: single siRNA against human genes
- Duration: reporter read 48 to 72 hours after siRNA transfection
- Conditions: flagellin stimulation for 4 hours, dose not given
- Measurement: 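Firefly to renilla ratio from a TNF promoter reporter after 4 h flagellin, as robust z against negative controls averaged across replicates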
- Direction: TNF reporter z-score: higher = stronger TNF promoter activity than controls
- Rule for the call: 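a row is called active when its replicate-mean z lies at or beyond 1.5 in either direction, so raised and lowered signal both count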
- Meaning of the calls: active = reporter shifted beyond 1.5 z, up or down; inactive = reporter within 1.5 z of controls
This is a random part of 756 deposited reagents. Of all reagents, 142 (19%) got an active call. 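Active includes both higher and lower reporter signal; each gene has six separate siRNAs, and no gene-level summary is deposited.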 The numbers tell different reagents against one gene apart. Not given: the amount of reagent.

| gene symbol | siRNA no. | TNF reporter z-score | Outcome |
| --- | --- | --- | --- |
| MAP2K6 | 1 | 0.0256 | inactive |
| MAP2K6 | 2 | -0.81 | inactive |
| MAP2K6 | 3 | -0.0299 | inactive |
| MAP2K6 | 4 | -0.326 | inactive |
| MAP2K6 | 5 | 0.0346 | inactive |
| MAP2K6 | 6 | -0.923 | inactive |
| MAPK1 | 1 | 1.01 | inactive |
| MAPK1 | 2 | -0.375 | inactive |
| MAPK1 | 3 | 0.225 | inactive |
| MAPK1 | 4 | 0.618 | inactive |
| MAPK1 | 5 | 0.118 | inactive |
| MAPK1 | 6 | -0.548 | inactive |
| PIK3CA | 1 | 0.0114 | inactive |
| PIK3CA | 2 | -0.842 | inactive |
| PIK3CA | 3 | -0.333 | inactive |
| PIK3CA | 4 | 0.078 | inactive |
| PIK3CA | 5 | -0.84 | inactive |
| PIK3CA | 6 | -0.412 | inactive |
| DUSP2 | 1 | -0.0547 | inactive |
| DUSP2 | 2 | -0.0741 | inactive |
| DUSP2 | 3 | -4.27 | active |
| DUSP2 | 4 | 0.164 | inactive |
| DUSP2 | 5 | -0.128 | inactive |
| DUSP2 | 6 | -0.446 | inactive |
| CXCL11 | 1 | -1.97 | active |
| CXCL11 | 2 | -0.155 | inactive |
| CXCL11 | 3 | -0.126 | inactive |
| CXCL11 | 4 | -0.187 | inactive |
| CXCL11 | 5 | -0.143 | inactive |
| CXCL11 | 6 | -0.0658 | inactive |
| PELI1 | 1 | -0.16 | inactive |
| PELI1 | 2 | -0.359 | inactive |
| PELI1 | 3 | 1.76 | active |
| PELI1 | 4 | -1.63 | active |
| PELI1 | 5 | -0.134 | inactive |
| PELI1 | 6 | -0.312 | inactive |
| IL33R | 1 | -0.704 | inactive |
| IL33R | 2 | -0.38 | inactive |
| IL33R | 3 | -0.239 | inactive |
| IL33R | 4 | 1.05 | inactive |
| IL33R | 5 | -1.19 | inactive |
| IL33R | 6 | -0.842 | inactive |
| RELA | 1 | -3.54 | active |
| RELA | 2 | -0.826 | inactive |
| RELA | 3 | -1.42 | inactive |
| RELA | 4 | -1.11 | inactive |
| RELA | 5 | -0.0355 | inactive |
| RELA | 6 | -2.61 | active |
| MAP3K14 | 1 | 1.03 | inactive |
| MAP3K14 | 2 | 0.998 | inactive |
| MAP3K14 | 3 | 1.03 | inactive |
| MAP3K14 | 4 | -0.249 | inactive |
| MAP3K14 | 5 | -0.0488 | inactive |
| MAP3K14 | 6 | -0.698 | inactive |
| CCL3 | 1 | -0.336 | inactive |
| CCL3 | 2 | -0.672 | inactive |
| CCL3 | 3 | -0.755 | inactive |
| CCL3 | 4 | -0.175 | inactive |
| CCL3 | 5 | 0.5 | inactive |
| CCL3 | 6 | -0.262 | inactive |
| NFKB2 | 1 | -1.39 | inactive |
| NFKB2 | 2 | -0.624 | inactive |
| NFKB2 | 3 | 1.5 | active |
| NFKB2 | 4 | -0.253 | inactive |
| NFKB2 | 5 | -2.16 | active |
| NFKB2 | 6 | -0.78 | inactive |
| IL12B | 1 | -1.69 | active |
| IL12B | 2 | -0.351 | inactive |
| IL12B | 3 | -1.11 | inactive |
| IL12B | 4 | -1.02 | inactive |
| IL12B | 5 | -2.7 | active |
| IL12B | 6 | -1.41 | inactive |
| PIK3CB | 1 | -1.83 | active |
| PIK3CB | 2 | -0.785 | inactive |
| PIK3CB | 3 | -0.861 | inactive |
| PIK3CB | 4 | 0.107 | inactive |
| PIK3CB | 5 | 0.707 | inactive |
| PIK3CB | 6 | 0.393 | inactive |

Records listed above marked active, once more:
| gene symbol | siRNA no. | TNF reporter z-score | Outcome |
| --- | --- | --- | --- |
| DUSP2 | 3 | -4.27 | active |
| CXCL11 | 1 | -1.97 | active |
| PELI1 | 3 | 1.76 | active |
| PELI1 | 4 | -1.63 | active |
| RELA | 1 | -3.54 | active |
| RELA | 6 | -2.61 | active |
| NFKB2 | 3 | 1.5 | active |
| NFKB2 | 5 | -2.16 | active |
| IL12B | 1 | -1.69 | active |
| IL12B | 5 | -2.7 | active |
| PIK3CB | 1 | -1.83 | active |
